Values of other authors as cited in patent publication US10314817B2, “Tryptamide compositions and methods of use” (Signum Biosciences, Inc., priority 2014, dated 2019).
Like-named read-outs stand apart in the source and are kept apart here. Some of these results come from one statement about several compounds together. At least one compound was matched to its structure with a doubt left.

SMILES: C[C@@]12C=Cc3occc3[C@H]1CC[C@@]13C[C@@H](CC[C@H]12)[C@@](O)(CO)C3 [kahweol]
- increase in cholesterol levels (men): ≥ 8%
- increase in cholesterol levels (women): ≥ 10%
